Experimental findings from article PMC12102759 are described below.

By UniProt entry, the sequences of proteins in these tests, tags left out. Where a name states a change or a piece, a line headed by the entry shows the natural chain unless it says otherwise. Residues count along the entry.
UniProt Q9Y490, residues 309-401: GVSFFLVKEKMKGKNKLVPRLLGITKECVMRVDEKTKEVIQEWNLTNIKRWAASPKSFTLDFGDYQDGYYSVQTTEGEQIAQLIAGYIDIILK
UniProt Q6XPS3: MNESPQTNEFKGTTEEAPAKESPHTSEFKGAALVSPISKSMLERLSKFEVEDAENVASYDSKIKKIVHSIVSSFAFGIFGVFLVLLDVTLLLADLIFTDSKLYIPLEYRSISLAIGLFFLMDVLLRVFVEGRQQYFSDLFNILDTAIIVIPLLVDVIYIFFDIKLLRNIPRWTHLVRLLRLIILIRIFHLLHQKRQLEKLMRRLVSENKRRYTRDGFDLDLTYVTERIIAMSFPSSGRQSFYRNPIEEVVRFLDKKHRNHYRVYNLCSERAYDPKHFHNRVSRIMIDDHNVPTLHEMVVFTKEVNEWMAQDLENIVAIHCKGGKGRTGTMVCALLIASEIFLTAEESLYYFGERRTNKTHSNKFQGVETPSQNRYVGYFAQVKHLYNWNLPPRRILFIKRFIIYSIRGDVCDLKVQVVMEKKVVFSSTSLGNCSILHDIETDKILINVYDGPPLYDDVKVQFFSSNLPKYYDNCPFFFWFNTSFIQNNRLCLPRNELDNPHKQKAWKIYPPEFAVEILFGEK

These are yes or no findings as the source states them, for the method shown.

In the experiment the target is talin‐1 PTB domain (309–401), tag cleaved, for FP (human) (UniProt Q9Y490). Kind of experiment: fluorescence polarisation; human domains; saturation with FITC-labelled probe peptide or displacement by unlabelled peptide; 50 mM KPO4 pH 7.5, DTT; triplicates; the text does not tell which of the two gave each KD; both purified. In general terms: Fluorescence polarisation rises when a labelled molecule tumbles more slowly, as on binding a larger partner.

Regarding “TPTE2_(92‐107) F97A peptide (from UniProt Q6XPS3 92-107)”, the binding entry is “no binding”.
